# From the supplement of paper PMC10032668
# The other results are listed elsewhere or left out. The list holds hits alone, and they repeat only in part.
# Assays:
# Assay in all cases: PRISMA enrichment of interactor (LFQ) in peptide spot vs all other peptide spots (log2 fold change); higher = stronger / more specific binding of the interactor to the peptide
# [1] = biological target: ADNP, Q9H2P0
# Method: (§1)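 PRISMA: 15-aa overlapping tiles (offset 8 aa) of 60 microproteins, plus SOS1/GLUT1 control peptides, were spot-synthesized on cellulose membranes in triplicate. Membranes were incubated with benzonase-treated HEK293T lysate, and bound proteins were identified by LC-MS/MS with LFQ. Enrichment is the log2 fold change of each protein in one spot versus all other spots. Only interactors passing the significance cutoff are listed.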
# [2] = biological target: BTAF1, O14981
# Method: as §1
# [3] = biological target: CASP14, P31944
# Method: as §1
# [4] = biological target: CCDC59, Q9P031
# Method: as §1
# [5] = biological target: CHTF18, Q8WVB6
# Method: as §1
# [6] = biological target: CHTOP, Q9Y3Y2
# Method: as §1
# [7] = biological target: CLSPN, Q9HAW4
# Method: as §1
# [8] = biological target: CNOT11, Q9UKZ1
# Method: as §1
# [9] = biological target: DECR1, Q16698
# Method: as §1
# [10] = biological target: DNAJB6, O75190
# Method: as §1
# [11] = biological target: ECT2, Q9H8V3
# Method: as §1
# [12] = biological target: EDF1, O60869
# Method: as §1
# [13] = biological target: ERLIN1, O75477
# Method: as §1
# [14] = biological target: FAM136A, Q96C01
# Method: as §1
# [15] = biological target: HDGFL2, Q7Z4V5
# Method: as §1
# [16] = biological target: HNRNPDL, O14979
# Method: as §1
# [17] = biological target: HNRNPF, P52597
# Method: as §1
# [18] = biological target: IDH3B, O43837
# Method: as §1
# [19] = biological target: IST1, P53990
# Method: as §1
# [20] = biological target: KCTD12, Q96CX2
# Method: as §1
# [21] = biological target: LCLAT1, Q6UWP7
# Method: as §1
# [22] = biological target: MACF1
# Method: as §1
# [23] = biological target: MAP7D1, Q3KQU3
# Method: as §1
# [24] = biological target: MAP7D3, Q8IWC1
# Method: as §1
# [25] = biological target: MED20, Q9H944
# Method: as §1
# [26] = biological target: MXRA7, P84157
# Method: as §1
# [27] = biological target: NOP2, P46087
# Method: as §1
# [28] = biological target: NOP53, Q9NZM5
# Method: as §1
# [29] = biological target: OBSL1, O75147
# Method: as §1
# [30] = biological target: PRPF4, O43172
# Method: as §1
# [31] = biological target: R3HDM1, Q15032
# Method: as §1
# [32] = biological target: RAB14, P61106
# Method: as §1
# [33] = biological target: RANBP6, O60518
# Method: as §1
# [34] = biological target: RFC3, P40938
# Method: as §1
# [35] = biological target: RIOK2, Q9BVS4
# Method: as §1
# [36] = biological target: S100A9, P06702
# Method: as §1
# [37] = biological target: SLC39A7, Q92504
# Method: as §1
# [38] = biological target: TENT4B, Q8NDF8
# Method: as §1
# [39] = biological target: TRIR, Q9BQ61
# Method: as §1
# [40] = biological target: UBA1, P22314
# Method: as §1
binder,measurement,setting,value
VFEELLSQWDAALKS [RP11-140K17.3],PRISMA enrichment of interactor (log2),[1],4.57
same,PRISMA enrichment of interactor (log2),[2],4.23
same,PRISMA enrichment of interactor (log2),[3],4.27
same,PRISMA enrichment of interactor (log2),[4],4.53
same,PRISMA enrichment of interactor (log2),[5],4.71
same,PRISMA enrichment of interactor (log2),[6],5.1
same,PRISMA enrichment of interactor (log2),[7],7.27
same,PRISMA enrichment of interactor (log2),[8],6.04
same,PRISMA enrichment of interactor (log2),[9],8.04
same,PRISMA enrichment of interactor (log2),[10],6.01
same,PRISMA enrichment of interactor (log2),[11],4.39
same,PRISMA enrichment of interactor (log2),[12],5.18
same,PRISMA enrichment of interactor (log2),[13],4.5
same,PRISMA enrichment of interactor (log2),[14],5.03
same,PRISMA enrichment of interactor (log2),[15],4.47
same,PRISMA enrichment of interactor (log2),[16],4.92
same,PRISMA enrichment of interactor (log2),[17],5.7
same,PRISMA enrichment of interactor (log2),[18],5.26
same,PRISMA enrichment of interactor (log2),[19],4.73
same,PRISMA enrichment of interactor (log2),[20],7.14
same,PRISMA enrichment of interactor (log2),[21],8.26
same,PRISMA enrichment of interactor (log2),[22],6.02
same,PRISMA enrichment of interactor (log2),[23],5.46
same,PRISMA enrichment of interactor (log2),[24],5.18
same,PRISMA enrichment of interactor (log2),[25],6.83
same,PRISMA enrichment of interactor (log2),[26],3.9
same,PRISMA enrichment of interactor (log2),[27],4.65
same,PRISMA enrichment of interactor (log2),[28],4.91
same,PRISMA enrichment of interactor (log2),[29],4.62
same,PRISMA enrichment of interactor (log2),[30],5.64
same,PRISMA enrichment of interactor (log2),[31],4.81
same,PRISMA enrichment of interactor (log2),[32],6.24
same,PRISMA enrichment of interactor (log2),[33],4.3
same,PRISMA enrichment of interactor (log2),[34],6.89
same,PRISMA enrichment of interactor (log2),[35],3.99
same,PRISMA enrichment of interactor (log2),[36],7.81
same,PRISMA enrichment of interactor (log2),[37],4.49
same,PRISMA enrichment of interactor (log2),[38],3.76
same,PRISMA enrichment of interactor (log2),[39],3.83
same,PRISMA enrichment of interactor (log2),[40],5.24

# Some of the entries so far, bar-delimited.
binder | measurement | setting | value
VFEELLSQWDAALKS [RP11-140K17.3] | PRISMA enrichment of interactor (log2) | [24] | 5.18
same | PRISMA enrichment of interactor (log2) | [25] | 6.83
same | PRISMA enrichment of interactor (log2) | [26] | 3.9
same | PRISMA enrichment of interactor (log2) | [27] | 4.65
same | PRISMA enrichment of interactor (log2) | [28] | 4.91
same | PRISMA enrichment of interactor (log2) | [29] | 4.62
same | PRISMA enrichment of interactor (log2) | [30] | 5.64
same | PRISMA enrichment of interactor (log2) | [31] | 4.81
same | PRISMA enrichment of interactor (log2) | [32] | 6.24
